Two substances from article PMC10143440 can be followed below.

Sequences of proteins named here, by UniProt entry; tags and fusion partners are left off. Residues count along the entry.
UniProt P16305, residues 20-453: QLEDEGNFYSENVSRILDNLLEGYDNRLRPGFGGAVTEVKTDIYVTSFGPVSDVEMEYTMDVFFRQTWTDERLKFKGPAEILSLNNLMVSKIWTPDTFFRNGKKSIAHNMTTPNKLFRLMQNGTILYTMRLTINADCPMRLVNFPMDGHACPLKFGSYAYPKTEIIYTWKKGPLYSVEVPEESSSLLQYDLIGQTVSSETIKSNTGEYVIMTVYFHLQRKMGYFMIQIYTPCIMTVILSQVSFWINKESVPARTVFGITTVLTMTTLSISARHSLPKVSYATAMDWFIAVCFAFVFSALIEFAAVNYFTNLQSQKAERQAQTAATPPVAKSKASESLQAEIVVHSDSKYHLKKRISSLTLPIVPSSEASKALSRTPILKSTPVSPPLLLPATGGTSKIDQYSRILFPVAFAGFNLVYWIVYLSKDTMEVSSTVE
UniProt P62812, residues 28-455: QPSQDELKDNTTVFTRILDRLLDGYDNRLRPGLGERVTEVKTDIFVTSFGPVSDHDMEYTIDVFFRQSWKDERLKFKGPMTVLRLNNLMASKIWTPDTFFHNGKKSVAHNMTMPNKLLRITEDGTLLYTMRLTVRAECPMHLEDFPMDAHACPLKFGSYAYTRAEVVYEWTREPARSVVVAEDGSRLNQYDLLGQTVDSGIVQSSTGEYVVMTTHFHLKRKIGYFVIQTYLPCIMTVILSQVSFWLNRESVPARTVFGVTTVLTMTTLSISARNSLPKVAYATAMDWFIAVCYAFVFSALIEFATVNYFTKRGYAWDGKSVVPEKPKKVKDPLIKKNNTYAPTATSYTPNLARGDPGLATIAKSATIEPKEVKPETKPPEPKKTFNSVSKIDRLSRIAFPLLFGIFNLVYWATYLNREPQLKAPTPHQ
UniProt Q69ZK9, residues 15-836: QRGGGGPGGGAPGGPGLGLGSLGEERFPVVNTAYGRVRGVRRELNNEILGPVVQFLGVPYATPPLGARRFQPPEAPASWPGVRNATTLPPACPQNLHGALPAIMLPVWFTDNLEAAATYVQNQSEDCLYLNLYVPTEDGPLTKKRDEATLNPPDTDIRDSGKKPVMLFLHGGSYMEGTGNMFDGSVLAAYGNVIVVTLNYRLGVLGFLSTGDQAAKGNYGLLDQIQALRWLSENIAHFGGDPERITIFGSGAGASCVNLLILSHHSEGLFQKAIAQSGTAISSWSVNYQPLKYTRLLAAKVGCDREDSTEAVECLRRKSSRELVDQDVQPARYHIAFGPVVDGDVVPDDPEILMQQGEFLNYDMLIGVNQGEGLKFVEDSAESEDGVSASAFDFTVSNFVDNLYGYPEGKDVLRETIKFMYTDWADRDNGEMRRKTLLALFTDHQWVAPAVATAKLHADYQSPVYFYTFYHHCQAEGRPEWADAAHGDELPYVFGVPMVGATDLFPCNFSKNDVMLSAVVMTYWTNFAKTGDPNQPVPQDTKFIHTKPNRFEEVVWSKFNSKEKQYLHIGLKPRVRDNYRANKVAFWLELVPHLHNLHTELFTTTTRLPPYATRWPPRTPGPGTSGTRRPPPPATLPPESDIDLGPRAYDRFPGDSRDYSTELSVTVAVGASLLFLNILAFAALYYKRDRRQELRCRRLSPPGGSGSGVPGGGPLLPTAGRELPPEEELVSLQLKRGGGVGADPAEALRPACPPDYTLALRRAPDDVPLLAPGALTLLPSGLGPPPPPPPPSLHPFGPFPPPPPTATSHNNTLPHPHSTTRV

Results are given in words; binding and its absence hold for the method and conditions named. Binding seen in cells or lysates may run through a third protein. A yes stands for co-enrichment or nearness to the bait. Other partners may have been found.

Test [1] concerns the target GABAA receptor α6 subunit (Gabra6) (mouse (endogenous in cerebellum)) (UniProt P16305). The test is described as follows: affinity purification with mass spectrometry; IP with anti-Gabra1 (N95/35) or anti-Gabra6 (Gabra6-a N229A/32, Gabra6-b custom) antibody from mouse cerebellum extract in 1% MNG, 25 mM HEPES, 150 mM NaCl, pH 7.4, overnight 4 °C; protein A/G agarose; washes 0.1% MNG; SDS-PAGE, LC-MS (DDA, iBAQ).

The target in test [2] is GABAA receptor α1 subunit (Gabra1) (mouse (endogenous in cerebellum)) (UniProt P62812). Described as above.

Consider “GABAA receptor δ subunit (Gabrd) (from UniProt P22933 25-449)”, for which the binding entry in test [1] is “binds”.
Turning to “Neuroligin-2 (Nlgn2) (from UniProt Q69ZK9 15-836)”, the binding result in test [1] and in test [2] was “binds” throughout.
